Data as given in the supplement of paper PMC10849652.
The other results are listed elsewhere or left out.

Protein sequences, listed by entry. Tags and fused reporters are not part of them. Lines headed by an entry give the natural chain unless they say otherwise; changes in a name come on top.
UniProt O94776: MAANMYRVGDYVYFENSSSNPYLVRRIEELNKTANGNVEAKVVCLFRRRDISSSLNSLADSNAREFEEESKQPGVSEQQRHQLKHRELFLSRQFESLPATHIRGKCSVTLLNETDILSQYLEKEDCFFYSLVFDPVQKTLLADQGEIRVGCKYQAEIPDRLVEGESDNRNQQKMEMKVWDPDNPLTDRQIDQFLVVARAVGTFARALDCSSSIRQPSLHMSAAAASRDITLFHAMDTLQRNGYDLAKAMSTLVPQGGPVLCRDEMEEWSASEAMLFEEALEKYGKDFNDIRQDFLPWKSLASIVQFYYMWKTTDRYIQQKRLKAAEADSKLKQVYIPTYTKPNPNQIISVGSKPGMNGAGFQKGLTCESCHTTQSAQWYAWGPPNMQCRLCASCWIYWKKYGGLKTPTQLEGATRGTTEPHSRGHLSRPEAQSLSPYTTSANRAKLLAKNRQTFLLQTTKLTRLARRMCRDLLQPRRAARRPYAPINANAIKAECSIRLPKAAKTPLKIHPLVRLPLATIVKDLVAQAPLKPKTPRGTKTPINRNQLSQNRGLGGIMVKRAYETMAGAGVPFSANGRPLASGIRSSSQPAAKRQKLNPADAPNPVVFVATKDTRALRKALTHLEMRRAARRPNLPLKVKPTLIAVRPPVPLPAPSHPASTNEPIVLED
UniProt Q13615: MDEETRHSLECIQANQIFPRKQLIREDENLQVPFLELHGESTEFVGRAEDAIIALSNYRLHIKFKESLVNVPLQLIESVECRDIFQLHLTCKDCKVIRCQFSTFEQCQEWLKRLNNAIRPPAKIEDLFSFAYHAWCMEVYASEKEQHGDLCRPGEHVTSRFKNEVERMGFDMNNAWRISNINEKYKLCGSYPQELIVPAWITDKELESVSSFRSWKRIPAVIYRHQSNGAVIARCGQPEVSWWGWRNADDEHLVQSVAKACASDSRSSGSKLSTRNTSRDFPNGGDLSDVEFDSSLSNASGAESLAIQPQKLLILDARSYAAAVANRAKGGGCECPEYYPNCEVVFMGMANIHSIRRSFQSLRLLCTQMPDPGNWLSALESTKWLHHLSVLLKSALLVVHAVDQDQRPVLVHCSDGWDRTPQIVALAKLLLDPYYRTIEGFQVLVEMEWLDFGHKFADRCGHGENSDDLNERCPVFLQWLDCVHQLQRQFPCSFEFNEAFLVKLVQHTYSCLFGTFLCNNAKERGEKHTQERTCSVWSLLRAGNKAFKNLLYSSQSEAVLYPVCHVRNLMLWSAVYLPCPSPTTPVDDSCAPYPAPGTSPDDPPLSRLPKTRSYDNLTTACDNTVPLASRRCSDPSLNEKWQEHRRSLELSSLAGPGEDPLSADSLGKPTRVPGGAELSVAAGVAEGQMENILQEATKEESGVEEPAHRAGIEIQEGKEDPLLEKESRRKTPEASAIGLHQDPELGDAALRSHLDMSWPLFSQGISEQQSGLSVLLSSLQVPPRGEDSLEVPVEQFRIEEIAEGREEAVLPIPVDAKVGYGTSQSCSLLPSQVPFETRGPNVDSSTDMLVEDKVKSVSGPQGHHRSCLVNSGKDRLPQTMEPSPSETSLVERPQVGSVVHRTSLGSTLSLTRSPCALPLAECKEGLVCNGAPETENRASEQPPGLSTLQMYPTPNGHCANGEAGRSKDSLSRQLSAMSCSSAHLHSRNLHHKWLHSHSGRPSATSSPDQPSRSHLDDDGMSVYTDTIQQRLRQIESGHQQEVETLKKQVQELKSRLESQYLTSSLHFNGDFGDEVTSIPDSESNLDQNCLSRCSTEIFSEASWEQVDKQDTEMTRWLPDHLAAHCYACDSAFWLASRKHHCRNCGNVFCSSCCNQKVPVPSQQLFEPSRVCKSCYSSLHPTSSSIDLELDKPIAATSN
UniProt Q96E29: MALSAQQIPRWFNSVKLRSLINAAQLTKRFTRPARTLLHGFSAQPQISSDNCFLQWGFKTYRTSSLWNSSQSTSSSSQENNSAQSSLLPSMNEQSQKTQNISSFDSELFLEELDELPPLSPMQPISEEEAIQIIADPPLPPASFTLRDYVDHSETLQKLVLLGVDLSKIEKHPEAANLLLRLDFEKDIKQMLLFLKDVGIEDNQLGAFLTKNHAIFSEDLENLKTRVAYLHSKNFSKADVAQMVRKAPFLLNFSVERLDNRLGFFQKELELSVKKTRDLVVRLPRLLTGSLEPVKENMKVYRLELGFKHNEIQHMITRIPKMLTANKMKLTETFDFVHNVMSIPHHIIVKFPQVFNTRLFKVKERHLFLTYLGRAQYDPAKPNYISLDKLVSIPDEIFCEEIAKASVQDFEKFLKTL
UniProt Q9Y4B5: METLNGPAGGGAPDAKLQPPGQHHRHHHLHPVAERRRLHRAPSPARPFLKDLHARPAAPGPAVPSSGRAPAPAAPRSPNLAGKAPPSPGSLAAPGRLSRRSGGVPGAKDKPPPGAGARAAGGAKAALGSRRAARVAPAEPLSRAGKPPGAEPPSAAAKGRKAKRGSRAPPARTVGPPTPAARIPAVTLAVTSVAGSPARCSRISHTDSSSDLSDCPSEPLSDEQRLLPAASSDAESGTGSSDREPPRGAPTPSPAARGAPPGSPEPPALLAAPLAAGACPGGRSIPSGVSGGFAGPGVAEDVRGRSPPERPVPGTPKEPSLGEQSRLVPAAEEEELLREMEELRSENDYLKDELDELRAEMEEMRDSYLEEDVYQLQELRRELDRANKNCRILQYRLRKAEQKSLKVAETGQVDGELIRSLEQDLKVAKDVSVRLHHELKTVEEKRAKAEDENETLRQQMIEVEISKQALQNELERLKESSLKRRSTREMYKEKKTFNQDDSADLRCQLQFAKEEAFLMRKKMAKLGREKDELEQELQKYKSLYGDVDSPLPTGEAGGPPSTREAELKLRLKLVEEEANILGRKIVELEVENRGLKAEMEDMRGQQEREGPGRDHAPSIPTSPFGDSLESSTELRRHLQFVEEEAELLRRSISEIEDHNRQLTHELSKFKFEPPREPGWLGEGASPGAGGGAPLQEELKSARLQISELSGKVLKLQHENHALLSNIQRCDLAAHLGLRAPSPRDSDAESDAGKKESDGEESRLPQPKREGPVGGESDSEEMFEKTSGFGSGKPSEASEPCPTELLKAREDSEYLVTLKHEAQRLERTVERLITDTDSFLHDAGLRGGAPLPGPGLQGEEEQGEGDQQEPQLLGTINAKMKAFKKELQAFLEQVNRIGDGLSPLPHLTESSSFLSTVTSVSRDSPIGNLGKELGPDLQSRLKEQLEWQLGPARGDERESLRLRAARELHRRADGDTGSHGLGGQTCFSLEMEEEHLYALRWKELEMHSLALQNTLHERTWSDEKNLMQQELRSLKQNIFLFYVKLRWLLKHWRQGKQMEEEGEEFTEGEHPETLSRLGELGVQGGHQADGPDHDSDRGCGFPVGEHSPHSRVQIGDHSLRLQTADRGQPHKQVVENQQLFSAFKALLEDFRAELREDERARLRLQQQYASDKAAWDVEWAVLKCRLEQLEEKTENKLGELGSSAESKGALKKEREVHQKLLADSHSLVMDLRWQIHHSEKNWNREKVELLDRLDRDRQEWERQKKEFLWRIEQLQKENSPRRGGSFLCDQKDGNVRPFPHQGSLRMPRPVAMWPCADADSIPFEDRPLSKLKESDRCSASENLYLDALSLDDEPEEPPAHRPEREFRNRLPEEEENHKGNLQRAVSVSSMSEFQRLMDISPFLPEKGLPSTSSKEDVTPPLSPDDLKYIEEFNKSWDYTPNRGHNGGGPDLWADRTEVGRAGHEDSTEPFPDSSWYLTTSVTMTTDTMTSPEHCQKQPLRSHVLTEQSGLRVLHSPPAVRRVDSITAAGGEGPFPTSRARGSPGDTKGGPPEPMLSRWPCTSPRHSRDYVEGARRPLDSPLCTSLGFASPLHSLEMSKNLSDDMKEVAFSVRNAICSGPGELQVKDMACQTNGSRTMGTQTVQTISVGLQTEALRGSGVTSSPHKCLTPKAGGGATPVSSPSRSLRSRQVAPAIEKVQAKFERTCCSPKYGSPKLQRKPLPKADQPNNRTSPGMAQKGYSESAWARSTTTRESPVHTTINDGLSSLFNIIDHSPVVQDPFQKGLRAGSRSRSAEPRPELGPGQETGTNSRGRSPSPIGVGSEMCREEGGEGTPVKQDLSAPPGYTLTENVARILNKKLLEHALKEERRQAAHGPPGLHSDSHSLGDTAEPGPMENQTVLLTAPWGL
UniProt P03886, whole entry, looked up: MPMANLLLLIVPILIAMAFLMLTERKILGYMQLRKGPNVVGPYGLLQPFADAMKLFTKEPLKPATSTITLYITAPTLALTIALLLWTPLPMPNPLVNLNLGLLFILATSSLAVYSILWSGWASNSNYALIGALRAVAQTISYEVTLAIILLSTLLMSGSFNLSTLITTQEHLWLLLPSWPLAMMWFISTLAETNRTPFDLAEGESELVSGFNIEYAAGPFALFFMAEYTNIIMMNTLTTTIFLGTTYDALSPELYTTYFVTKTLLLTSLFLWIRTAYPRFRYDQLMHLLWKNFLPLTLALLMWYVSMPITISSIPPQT
UniProt P03915, whole entry, looked up: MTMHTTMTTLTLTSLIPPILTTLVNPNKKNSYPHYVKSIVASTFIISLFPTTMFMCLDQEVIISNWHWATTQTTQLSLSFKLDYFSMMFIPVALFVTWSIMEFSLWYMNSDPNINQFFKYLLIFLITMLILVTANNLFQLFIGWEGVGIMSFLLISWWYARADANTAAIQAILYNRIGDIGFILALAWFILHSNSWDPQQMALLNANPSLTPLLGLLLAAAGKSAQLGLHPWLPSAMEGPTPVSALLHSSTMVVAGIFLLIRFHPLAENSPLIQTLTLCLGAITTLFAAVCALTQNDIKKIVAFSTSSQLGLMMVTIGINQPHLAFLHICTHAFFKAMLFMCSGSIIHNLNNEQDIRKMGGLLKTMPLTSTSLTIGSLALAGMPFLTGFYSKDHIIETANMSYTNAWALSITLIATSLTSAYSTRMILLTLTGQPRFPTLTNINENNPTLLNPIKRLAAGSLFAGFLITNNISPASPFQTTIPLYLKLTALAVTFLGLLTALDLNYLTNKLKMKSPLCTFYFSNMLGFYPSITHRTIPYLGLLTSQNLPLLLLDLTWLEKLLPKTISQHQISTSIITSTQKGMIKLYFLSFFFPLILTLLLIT
UniProt Q9UGC7: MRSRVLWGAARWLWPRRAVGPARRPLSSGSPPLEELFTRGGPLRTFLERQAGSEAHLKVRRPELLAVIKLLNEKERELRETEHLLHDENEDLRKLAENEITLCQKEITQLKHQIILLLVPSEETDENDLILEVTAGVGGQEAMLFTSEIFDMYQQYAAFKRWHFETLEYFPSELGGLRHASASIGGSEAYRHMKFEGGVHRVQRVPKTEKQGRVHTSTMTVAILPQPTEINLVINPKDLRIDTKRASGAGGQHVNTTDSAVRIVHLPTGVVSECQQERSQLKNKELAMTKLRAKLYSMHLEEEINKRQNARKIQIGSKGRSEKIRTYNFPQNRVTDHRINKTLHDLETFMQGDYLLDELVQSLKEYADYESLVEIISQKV
MTHFD1, A0A384N5Y3, UniProt A0A384N5Y3, whole entry, looked up: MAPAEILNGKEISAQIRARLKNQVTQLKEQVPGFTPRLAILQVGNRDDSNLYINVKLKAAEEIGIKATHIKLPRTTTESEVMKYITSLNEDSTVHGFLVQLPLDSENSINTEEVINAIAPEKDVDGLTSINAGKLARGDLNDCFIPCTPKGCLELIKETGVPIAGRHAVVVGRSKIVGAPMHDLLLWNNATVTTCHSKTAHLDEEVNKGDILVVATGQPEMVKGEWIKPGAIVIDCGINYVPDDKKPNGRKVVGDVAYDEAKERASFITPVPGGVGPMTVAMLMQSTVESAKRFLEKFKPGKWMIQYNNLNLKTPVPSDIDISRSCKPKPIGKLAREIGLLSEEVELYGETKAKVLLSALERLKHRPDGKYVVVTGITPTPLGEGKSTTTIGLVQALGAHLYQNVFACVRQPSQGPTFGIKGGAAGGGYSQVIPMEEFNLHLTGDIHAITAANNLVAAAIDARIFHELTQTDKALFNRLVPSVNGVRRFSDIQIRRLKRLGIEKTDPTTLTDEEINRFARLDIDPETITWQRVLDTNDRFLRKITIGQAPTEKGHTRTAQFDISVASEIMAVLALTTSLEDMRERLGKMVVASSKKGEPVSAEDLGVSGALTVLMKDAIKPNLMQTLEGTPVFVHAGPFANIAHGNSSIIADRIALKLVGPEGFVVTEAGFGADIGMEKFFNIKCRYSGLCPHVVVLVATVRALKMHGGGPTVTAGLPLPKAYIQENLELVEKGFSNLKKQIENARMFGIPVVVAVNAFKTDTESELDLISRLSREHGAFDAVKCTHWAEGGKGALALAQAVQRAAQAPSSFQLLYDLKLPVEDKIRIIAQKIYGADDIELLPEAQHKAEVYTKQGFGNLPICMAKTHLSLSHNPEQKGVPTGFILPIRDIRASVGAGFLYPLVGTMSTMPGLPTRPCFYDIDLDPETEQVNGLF

Tests used:
Assay in all cases: log2 fold change, soluble protein after heating vs DMSO (PISA); higher = thermal stabilisation; K562 lysate, 10 uM; active = over 0.2 and 3.5 SD of the protein, either way, in both replicates (recomputed)
erlotinib = compound: C#Cc1cccc(Nc2ncnc3cc(OCCOC)c(OCCOC)cc23)c1 [erlotinib]
Outline: (§1)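 A 30 min treatment with 10 μM compound was applied to crude K562 extract at 1 mg/mL protein in PBS pH 7.4 with 1 mM MgCl2. Heating for 3 min spanned 48°C-58°C, after which aliquots were pooled, adjusted to 0.5% NP-40 at 4°C and spun at 21,000xg for 90 min. TMTpro 16plex LC-MS/MS of the supernatant, with channel sums equalised, gave values recorded as log-two fold change in thermal stability against solvent controls, from duplicates.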

[1] = compound: C/C(=N\NC(=O)C1=CC(=CC=C1)S(=O)(=O)N2CCOCC2)/C3=C(C=CC(=C3)Cl)O
Outline: as §1

[2] = compound: C1=CC(=CC=C1C2=NC3=C(N2)C=C(C=C3)C(=O)N)OC4=CC=C(C=C4)Cl
Outline: as §1

[3] = compound: C1=CC2=C(C=CC(=C2)/C=C\3/C(=O)NC(=NCC4=CC=CS4)S3)N=C1
Outline: as §1

[4] = compound: C1=CC2=NC=CN=C2C=C1/C=C/3\C(=O)NC(=O)S3
Outline: as §1

[5] = compound: C1=CC=C(C=C1)C2=NC(=C(N2)C3=CC=NC=C3)C4=CC(=C(C=C4)Cl)O
Outline: as §1

[6] = compound: C1=CC=C2C(=C1)C3=NNC4=CC=CC(=C43)C2=O
Outline: as §1

[7] = compound: C1CCN(C1)C(=O)NC2=CC=CC(=C2)NC3=NC=C(C(=N3)NCCC4=CN=CN4)Br
Outline: as §1

[8] = compound: C1CN(CCC1(CC2=CC=C(C=C2)Cl)N)C3=NC=NC4=C3C=CN4
Outline: as §1

IRAK-1-4 Inhibitor I = compound: C1COCCN1CCN2C3=CC=CC=C3N=C2NC(=O)C4=CC(=CC=C4)[N+](=O)[O-] [IRAK-1-4 Inhibitor I]
Outline: as §1

Measured: log2 fold change

MTA2 (UniProt O94776)
inactive: erlotinib -0.025 | [1] -0.017 | [2] 0.019 | [3] 0.013 | [4] -0.012 | [5] -0.015 | [6] -0.023 | [7] -0.007 | [8] 0.021 | IRAK-1-4 Inhibitor I -0.005

MRPL52 (UniProt Q86TS9)
inactive: erlotinib 0.095 | [1] -0.067 | [2] 0.007 | [3] 0.242 | [4] -0.015 | [5] 0.003 | [6] -0.088 | [7] 0 | [8] -0.112 | IRAK-1-4 Inhibitor I -0.031

MRPS27 isoform 2 (UniProt Q92552)
inactive: erlotinib 0.035 | [1] -0.03 | [2] 0.052 | [3] 0.016 | [4] -0.003 | [5] 0.01 | [6] -0.078 | [7] 0 | [8] 0.009 | IRAK-1-4 Inhibitor I 0.033

MRTFB isoform 5 (UniProt Q9ULH7)
inactive: erlotinib -0.002 | [1] 0.014 | [2] -0.024 | [3] 0.031 | [4] 0.005 | [5] -0.021 | [6] -0.019 | [7] -0.007 | [8] 0.042 | IRAK-1-4 Inhibitor I 0.094

MTMR3 (UniProt Q13615)
inactive: erlotinib 0.031 | [1] 0.008 | [2] 0.033 | [3] -0.029 | [4] -0.002 | [5] -0.015 | [6] -0.007 | [7] -0.076 | [8] 0.037 | IRAK-1-4 Inhibitor I -0.011

MTHFD1L (UniProt B7ZM99)
inactive: erlotinib 0.026 | [1] -0.001 | [2] 0 | [3] -0.007 | [4] 0.033 | [5] -0.006 | [6] -0.057 | [7] -0.004 | [8] 0.002 | IRAK-1-4 Inhibitor I -0.013

MRPS25 (UniProt P82663)
inactive: erlotinib -0.079 | [1] 0.012 | [2] 0.106 | [3] -0.084 | [4] -0.023 | [5] -0.028 | [6] -0.005 | [7] -0.033 | [8] 0.031 | IRAK-1-4 Inhibitor I 0.039

MRPL39 isoform 2 (UniProt Q9NYK5)
inactive: erlotinib 0.018 | [1] 0.031 | [2] 0.016 | [3] -0.009 | [4] 0.049 | [5] 0.022 | [6] -0.014 | [7] -0.062 | [8] 0 | IRAK-1-4 Inhibitor I 0.041

MRPL54 (UniProt Q6P161)
inactive: erlotinib 0.014 | [1] 0.034 | [2] 0.035 | [3] -0.026 | [4] -0.024 | [5] 0.001 | [6] 0.024 | [7] 0.004 | [8] 0.007 | IRAK-1-4 Inhibitor I 0.04

MUC1, A0A087WWM1
inactive: erlotinib 0.038 | [1] 0.074 | [2] 0.077 | [3] -0.073 | [4] -0.018 | [5] -0.023 | [6] -0.028 | [7] 0.047 | [8] 0.029 | IRAK-1-4 Inhibitor I -0.002

MRPS12 (UniProt O15235)
inactive: erlotinib -0.015 | [1] -0.058 | [2] 0 | [3] -0.044 | [4] -0.016 | [5] 0.019 | [6] -0.251 | [7] -0.004 | [8] -0.127 | IRAK-1-4 Inhibitor I 0.043

MTERF3 (UniProt Q96E29)
inactive: erlotinib 0.016 | [1] 0.076 | [2] -0.007 | [3] 0.046 | [4] -0.047 | [5] 0.031 | [6] -0.048 | [7] 0.011 | [8] 0.191 | IRAK-1-4 Inhibitor I -0.031

MSI2 (UniProt Q96DH6)
inactive: erlotinib -0.04 | [1] -0.277 | [2] 0.035 | [3] -0.047 | [4] 0.084 | [5] -0.034 | [6] -0.011 | [7] 0.03 | [8] 0.027 | IRAK-1-4 Inhibitor I 0.057

MRPL50 (UniProt Q8N5N7)
inactive: erlotinib 0.059 | [1] -0.041 | [2] 0.031 | [3] 0.017 | [4] -0.029 | [5] -0.123 | [6] -0.025 | [7] -0.008 | [8] 0.094 | IRAK-1-4 Inhibitor I 0.032

MRPL47 (UniProt Q9HD33)
inactive: erlotinib 0.028 | [1] -0.011 | [2] 0.063 | [3] 0.122 | [4] 0.063 | [5] 0.015 | [6] 0.025 | [7] -0.026 | [8] 0.189 | IRAK-1-4 Inhibitor I -0.063

MRPS34 (UniProt P82930)
inactive: erlotinib 0.053 | [1] -0.039 | [2] 0.027 | [3] 0.034 | [4] 0.026 | [5] -0.055 | [6] 0.056 | [7] 0.049 | [8] 0.115 | IRAK-1-4 Inhibitor I 0.051

MT-CO2 (UniProt P00403)
inactive: erlotinib -0.028 | [1] -0.078 | [2] -0.006 | [3] -0.001 | [4] -0.15 | [5] -0.015 | [6] 0.026 | [7] 0.008 | [8] 0.057 | IRAK-1-4 Inhibitor I 0.022

MTOR (UniProt P42345)
inactive: erlotinib 0.02 | [1] 0.031 | [2] -0.058 | [3] -0.022 | [4] 0.038 | [5] 0.025 | [6] -0.018 | [7] -0.012 | [8] 0.003 | IRAK-1-4 Inhibitor I 0.006

Two records drawn at random from those above:
MRPL47 (UniProt Q9HD33)
inactive: erlotinib 0.028 | [1] -0.011 | [2] 0.063 | [3] 0.122 | [4] 0.063 | [5] 0.015 | [6] 0.025 | [7] -0.026 | [8] 0.189 | IRAK-1-4 Inhibitor I -0.063

MRPS34 (UniProt P82930)
inactive: erlotinib 0.053 | [1] -0.039 | [2] 0.027 | [3] 0.034 | [4] 0.026 | [5] -0.055 | [6] 0.056 | [7] 0.049 | [8] 0.115 | IRAK-1-4 Inhibitor I 0.051

Next part:

MRPS9 (UniProt P82933)
inactive: erlotinib 0.002 | [1] 0.009 | [2] 0.092 | [3] 0.015 | [4] 0.002 | [5] -0.025 | [6] -0.047 | [7] -0.044 | [8] 0.075 | IRAK-1-4 Inhibitor I -0.002

MTMR12 (UniProt Q9C0I1)
inactive: erlotinib -0.014 | [1] -0.008 | [2] -0.015 | [3] 0.032 | [4] -0.013 | [5] 0.022 | [6] 0.026 | [7] -0.019 | [8] 0.017 | IRAK-1-4 Inhibitor I 0.017

MRPS11 (UniProt P82912)
inactive: erlotinib 0.073 | [1] -0.057 | [2] 0.002 | [3] 0.028 | [4] -0.067 | [5] -0.014 | [6] -0.216 | [7] 0.012 | [8] 0.113 | IRAK-1-4 Inhibitor I 0.035

MTCL1 (UniProt Q9Y4B5)
inactive: erlotinib 0.034 | [1] -0.03 | [2] 0.033 | [3] 0.063 | [4] -0.039 | [5] 0.079 | [6] -0.099 | [7] -0.078 | [8] 0.017 | IRAK-1-4 Inhibitor I 0.035

MT-ND1 (UniProt P03886)
inactive: erlotinib -0.061 | [1] -0.227 | [2] -0.14 | [3] 0.055 | [4] -0.036 | [5] -0.005 | [6] 0.061 | [7] -0.038 | [8] 0.02 | IRAK-1-4 Inhibitor I 0.004

MT-ND5 (UniProt P03915)
inactive: erlotinib 0.046 | [1] -0.053 | [2] -0.009 | [3] -0.002 | [4] 0.188 | [5] -0.058 | [6] -0.101 | [7] -0.016 | [8] 0.059 | IRAK-1-4 Inhibitor I 0.039

MRPS16 (UniProt Q9Y3D3)
inactive: erlotinib -0.005 | [1] -0.144 | [2] 0.032 | [3] -0.053 | [4] -0.092 | [5] -0.045 | [6] 0.032 | [7] 0.008 | [8] -0.036 | IRAK-1-4 Inhibitor I -0.041

MRPL33 (UniProt O75394)
inactive: erlotinib 0.063 | [1] -0.362 | [2] -0.033 | [3] 0.184 | [4] -0.072 | [5] 0.105 | [6] -0.016 | [7] -0.077 | [8] 0.213 | IRAK-1-4 Inhibitor I -0.087

MTRF1L (UniProt Q9UGC7)
inactive: erlotinib -0.013 | [1] -0.362 | [2] 0.072 | [3] 0.055 | [4] -0.008 | [5] 0.093 | [6] 0.079 | [7] 0.01 | [8] -0.098 | IRAK-1-4 Inhibitor I -0.003

MRPS7 (UniProt Q9Y2R9)
inactive: erlotinib 0.045 | [1] 0.025 | [2] 0.081 | [3] 0.034 | [4] -0.028 | [5] 0 | [6] 0.007 | [7] -0.016 | [8] -0.044 | IRAK-1-4 Inhibitor I 0.004

MTHFD1, A0A384N5Y3
inactive: erlotinib 0.024 | [1] 0.041 | [2] -0.004 | [3] 0.04 | [4] 0.029 | [5] 0.02 | [6] -0.039 | [7] 0.021 | [8] 0.015 | IRAK-1-4 Inhibitor I 0.002
